Taken from: PubChem BioAssay AID1259271 (Sanger Institute, 2017)
This is a random part of 160 reagents tested. Of all reagents, 124 (78%) are marked active. 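Each row is one of four siRNAs per gene; gene-level confirmation, requiring two siRNAs in several cell lines, is not included.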 Reagents against one gene are numbered here. Not all columns of the deposit are shown. Reagent sequences are not shown. The record does not give: the amount of reagent, the time to read-out.

Aim: 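Kinase siRNAs that make BYL719, cetuximab or trametinib kill more cells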 (follow-up of hits)
Cells: RKO colorectal cancer cells
Reagent: single siRNA against human genes
Treatment: anchor drug added to each siRNA well, cetuximab 5 µg/ml, trametinib 10 nM or BYL719 1 µM, compared with DMSO vehicle; exposure length not given
Read-out: 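Synergy score for each anchor drug (trametinib 10 nM, cetuximab 5 µg/ml, BYL719 1 µM, against DMSO) and survival versus control pool 2 (non-targeting), each a replicate mean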
Direction: synergy score with BYL719 and synergy score with cetuximab and synergy score with trametinib: higher = stronger synthetic lethality with the drug
Hit rule: 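Any anchor drug giving synergy above 0.10 makes the siRNA a hit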
Calls: active = synergy with at least one drug; inactive = no synergy with any drug

GRK5 (G protein-coupled receptor kinase 5) #1 showed synergy score with BYL719 = -0.0897; synergy score with cetuximab -0.0247; synergy score with trametinib 0.16; active.
GRK5 (G protein-coupled receptor kinase 5) #2 gave synergy score with BYL719 = -0.0312; synergy score with cetuximab 0.208; synergy score with trametinib 0.0637; active.
Knock-down of GRK5 (G protein-coupled receptor kinase 5) #3 resulted in: synergy score with BYL719 = -0.0544; synergy score with cetuximab -0.00378; synergy score with trametinib 0.186; active.
GRK5 (G protein-coupled receptor kinase 5) #4 showed synergy score with BYL719 = -0.032; synergy score with cetuximab 0.122; synergy score with trametinib 0.223; active.
STK36 (serine/threonine kinase 36) #1 gave synergy score with BYL719 = -0.229; synergy score with cetuximab 0.0542; synergy score with trametinib 0.118; active.
Knock-down of STK36 (serine/threonine kinase 36) #2 resulted in: synergy score with BYL719 = -0.152; synergy score with cetuximab -0.0103; synergy score with trametinib 0.184; active.
Knock-down of STK36 (serine/threonine kinase 36) #3 came out at: synergy score with BYL719 = -0.218; synergy score with cetuximab 0.0311; synergy score with trametinib 0.119; active.
For STK36 (serine/threonine kinase 36) #4, the values are synergy score with BYL719 = -0.143; synergy score with cetuximab -0.0454; synergy score with trametinib -0.0379; inactive.
With knock-down of PLK1 (polo like kinase 1) #1, the record shows synergy score with BYL719 = 0.00783; synergy score with cetuximab 0.0362; synergy score with trametinib 0.0708; inactive.
After knock-down of PLK1 (polo like kinase 1) #2, the screen gave synergy score with BYL719 = 0.00428; synergy score with cetuximab 0.0889; synergy score with trametinib 0.0546; inactive.
For PLK1 (polo like kinase 1) #3, the entry reads synergy score with BYL719 = 0.0143; synergy score with cetuximab 0.053; synergy score with trametinib 0.0576; inactive.
With knock-down of PLK1 (polo like kinase 1) #4 the results were synergy score with BYL719 = -0.0373; synergy score with cetuximab 0.00755; synergy score with trametinib 0.0444; inactive.
With knock-down of CDK6 (cyclin dependent kinase 6) #1, the screen gave synergy score with BYL719 = -0.0841; synergy score with cetuximab 0.156; synergy score with trametinib 0.19; active.
With knock-down of CDK6 (cyclin dependent kinase 6) #2, the record shows synergy score with BYL719 = -0.0256; synergy score with cetuximab 0.0958; synergy score with trametinib 0.261; active.
Against CDK6 (cyclin dependent kinase 6) #3, the values are synergy score with BYL719 = 0.0184; synergy score with cetuximab -0.0323; synergy score with trametinib 0.151; active.
Depletion of CDK6 (cyclin dependent kinase 6) #4 resulted in: synergy score with BYL719 = -0.0782; synergy score with cetuximab 0.102; synergy score with trametinib 0.0992; active.
Depletion of MPP3 (MAGUK p55 scaffold protein 3) #1 came out at: synergy score with BYL719 = -0.0195; synergy score with cetuximab 0.0251; synergy score with trametinib 0.188; active.
With knock-down of MPP3 (MAGUK p55 scaffold protein 3) #2, the record shows synergy score with BYL719 = 0.203; synergy score with cetuximab 0.337; synergy score with trametinib 0.364; active.
MPP3 (MAGUK p55 scaffold protein 3) #3 gave synergy score with BYL719 = 0.117; synergy score with cetuximab 0.082; synergy score with trametinib 0.26; active.
Against MPP3 (MAGUK p55 scaffold protein 3) #4, the values are synergy score with BYL719 = 0.207; synergy score with cetuximab 0.449; synergy score with trametinib 0.348; active.
Against AK2 (adenylate kinase 2) #1 the deposit lists synergy score with BYL719 = 0.188; synergy score with cetuximab 0.346; synergy score with trametinib 0.247; active.
For AK2 (adenylate kinase 2) #2, the values are synergy score with BYL719 = 0.0507; synergy score with cetuximab 0.0303; synergy score with trametinib 0.267; active.
AK2 (adenylate kinase 2) #3 gave synergy score with BYL719 = -0.182; synergy score with cetuximab -0.155; synergy score with trametinib -0.0654; inactive.
For AK2 (adenylate kinase 2) #4 the deposit lists synergy score with BYL719 = 0.0894; synergy score with cetuximab -0.104; synergy score with trametinib 0.308; active.

Ordered by “synergy score with BYL719” (low to high): some entries from above
STK36 (serine/threonine kinase 36) #3 | synergy score with BYL719 = -0.218; synergy score with cetuximab = 0.0311; synergy score with trametinib = 0.119; call = active
STK36 (serine/threonine kinase 36) #2 | synergy score with BYL719 = -0.152; synergy score with cetuximab = -0.0103; synergy score with trametinib = 0.184; call = active
STK36 (serine/threonine kinase 36) #4 | synergy score with BYL719 = -0.143; synergy score with cetuximab = -0.0454; synergy score with trametinib = -0.0379; call = inactive
